# Primary screen of a compound library

Protein sequences, listed by entry. Tags and fused reporters are not part of them. Residues count along the entry.
UniProt P9WPC5, whole entry: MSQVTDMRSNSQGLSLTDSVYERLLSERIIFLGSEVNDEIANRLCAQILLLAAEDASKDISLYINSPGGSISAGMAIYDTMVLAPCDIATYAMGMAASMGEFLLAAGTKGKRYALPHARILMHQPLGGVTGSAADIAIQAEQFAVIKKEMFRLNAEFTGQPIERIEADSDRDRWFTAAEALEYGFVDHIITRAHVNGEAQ
UniProt P9WPC3, whole entry partner: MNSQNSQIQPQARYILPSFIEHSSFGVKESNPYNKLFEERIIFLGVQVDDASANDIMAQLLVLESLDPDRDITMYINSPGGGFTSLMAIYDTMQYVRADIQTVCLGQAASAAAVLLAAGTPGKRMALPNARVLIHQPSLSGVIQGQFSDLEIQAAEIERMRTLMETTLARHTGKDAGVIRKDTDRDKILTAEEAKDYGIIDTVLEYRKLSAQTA
UniProt A4I591, 1-473: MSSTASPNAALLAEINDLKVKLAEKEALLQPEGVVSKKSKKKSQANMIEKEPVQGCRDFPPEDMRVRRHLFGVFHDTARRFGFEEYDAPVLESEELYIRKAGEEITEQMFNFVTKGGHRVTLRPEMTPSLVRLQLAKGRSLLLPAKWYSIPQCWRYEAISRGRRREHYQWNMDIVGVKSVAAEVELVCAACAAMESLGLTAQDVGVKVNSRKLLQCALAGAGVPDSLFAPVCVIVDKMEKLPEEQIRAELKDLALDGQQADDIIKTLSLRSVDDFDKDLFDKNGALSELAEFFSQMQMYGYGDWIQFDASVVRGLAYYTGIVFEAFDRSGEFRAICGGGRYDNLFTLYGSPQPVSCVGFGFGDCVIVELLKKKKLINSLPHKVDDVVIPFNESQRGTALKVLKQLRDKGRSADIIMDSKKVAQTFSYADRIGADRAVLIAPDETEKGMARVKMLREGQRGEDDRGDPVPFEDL

Each number is a percent effect as filed. How 0% and 100% were set is not recorded. Most values in the screen are low, and negative values occur. Compounds were drawn at random from those tested, without regard to their results.

ClpP1P2: 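Protease assay of ClpP1P2, read by the AMC dye that it sets free. Target: ClpP1P2, Mycobacterium tuberculosis (UniProt P9WPC5 and UniProt P9WPC3). Concentration: 50 µM. Direction is inferred from only a few compounds that gave an IC50; most scored high, so higher reads as stronger inhibition. Most other retested compounds had strongly negative values. Of about 69,000 compounds tested this way, about 10 (0.015%) reached 50% or more in at least one test.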
LiHisRS: 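Histidine-tRNA ligase, Leishmania infantum (UniProt A4I591). Enzyme assay of histidyl-tRNA synthetase; the read-out is not stated. Tested at 30 µM. The record gives no direction; compounds that gave an IC50 in retests scored well above the rest, so higher reads as stronger inhibition. The assay is labelled LdHisRS but filed under L. infantum. About 69,000 compounds were tested under these conditions; 0.6% (about 410) showed 50% or more at least once.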

COc1ccc(OCc2nccc(-c3cc(C(=O)O)ccn3)n2)cc1 read ClpP1P2: -19.79%; LiHisRS: 11.2%. With Cc1ccc2c(n1)N(CCN(C)C)CCN(C(=O)N1CCOCC1)C2 the screen gave ClpP1P2: -1.608%; LiHisRS: 13%. For CN1CCCCC12Cc1ccccc1CN(C(=O)C1CCCC1)C2 (stereo not shown) the result was ClpP1P2: -1.282%; LiHisRS: 17.93%. With Cc1nn(C)c(C)c1-c1ccc(=O)n(C(C)C(=O)NC2CCCCC2)n1 (stereo not shown) the screen gave ClpP1P2: -12.38%; LiHisRS: 2.797%. With CC(=O)c1ccc(S(=O)(=O)NCC2CCN(c3cnccn3)CC2)cc1 the screen gave ClpP1P2: -0.9812%; LiHisRS: 19.18%. Result for COc1cccc(Cn2ncnc2CNC(C)=O)c1 was ClpP1P2: -11.19%; LiHisRS: 8.197%. Result for Oc1nnc(-c2cccs2)c2sc(N3CCCCC3)nc12 was ClpP1P2: -15.34%; LiHisRS: 1.695%.

For CCN(CC)CCNC(=O)c1nn(CC)cc1Cl the result was ClpP1P2: 13.62%; LiHisRS: 11.65%. CCc1nc(C)sc1CN1CCc2[nH]nc(-c3ccc(F)c(F)c3)c2C1 read ClpP1P2: 9.944%; LiHisRS: 15.79%. For CCOc1ccc(CN[C@@H]2COC[C@H]2c2ccc(F)cc2)cc1 the result was ClpP1P2: -19.06%; LiHisRS: 1.418%. O=C(CCCc1cn[nH]c1)N1C[C@@H](CN2CCCCCC2)[C@@H](CO)C1 read ClpP1P2: -12.07%; LiHisRS: 6.452%. COc1cccc(CN(C)S(=O)(=O)N2CCOCC2)c1 read ClpP1P2: -3.928%; LiHisRS: 25.71%. Result for Cn1cc(CNc2cnn(CCO)c2)c(-c2ccncc2)n1 was ClpP1P2: -3.773%; LiHisRS: 21.93%. For CC(CN1CCCC1=O)NC(=O)c1cc(-c2cccc(Cl)c2)no1 (stereo not shown) the result was ClpP1P2: -18.48%; LiHisRS: 4.8%.

CC(Nc1ccc(N2C(=O)CCCC2=O)cc1)c1ccc(C#N)cc1 (stereo not shown) gave ClpP1P2: -2.566%; LiHisRS: 21.92%. Result for CC(C)c1nnc2ccc(N3CCC(C(=O)O)CC3)nn12 was ClpP1P2: -3.937%; LiHisRS: 18.42%. CCCc1nc(C)c(C(=O)NS(=O)(=O)c2cccnc2)s1 read ClpP1P2: -19.65%; LiHisRS: 9.589%. Result for COCC(NC(=O)c1ccc[nH]1)c1cccc(C(F)(F)F)c1 (stereo not shown) was ClpP1P2: -10.6%; LiHisRS: 11.54%. With CN(C)Cc1ccc(C2CCCCN2C(=O)c2cc(=O)[nH]c(=O)[nH]2)cc1 (stereo not shown) the screen gave ClpP1P2: -9.5%; LiHisRS: 8.333%. With CCS(=O)(=O)c1ccc2oc([C@H]3CCN(Cc4ccccc4)C3)nc2c1 the screen gave ClpP1P2: -8.26%; LiHisRS: 2.703%. CC(C)CN1CCN(C)C(CCO)C1 (stereo not shown) gave ClpP1P2: -5.538%; LiHisRS: 3.279%.

Cn1cnc(S(=O)(=O)N2CCN(CC3CC3)c3ncccc3C2)c1 gave ClpP1P2: -4.712%; LiHisRS: 10.26%. With O=C1CC(c2ccc3c(c2)OCO3)c2cn[nH]c2N1 (stereo not shown) the screen gave ClpP1P2: -0.7116%; LiHisRS: 15.17%. Cc1nn(C)c2nc(NCCOCCO)sc12 gave ClpP1P2: 3.443%; LiHisRS: 18.28%. With CC(C(=O)NCCOc1ccccc1)n1cncn1 (stereo not shown) the screen gave ClpP1P2: -4.218%; LiHisRS: 16.95%. Result for Nc1ncc(CN2CCC(CCC(=O)NC3CC3)CC2)cn1 was ClpP1P2: -13.17%; LiHisRS: 5.714%. CC(=O)N1CCN(C(=O)c2cc(C(C)C)no2)[C@H]2CS(=O)(=O)C[C@H]21 gave ClpP1P2: -14.1%; LiHisRS: 22.83%. Result for CC(Cn1cccn1)NCc1csc(-c2ccccc2)n1 (stereo not shown) was ClpP1P2: 2.571%; LiHisRS: 15.38%.

Result for Cc1nc(C2CCCN(C(=O)COCCc3ccccc3)C2)no1 (stereo not shown) was ClpP1P2: -22.59%; LiHisRS: 5.172%. CN1CCN(C(=O)[C@@H]2CC[C@@H]3[C@@H](CCN3c3ncccn3)O2)CC1 read ClpP1P2: -6.709%; LiHisRS: 14%. With CCC(=O)N1CCc2c(O)nc(C3CCCCN3C(=O)C3CC3)nc2C1 (stereo not shown) the screen gave ClpP1P2: 7.217%; LiHisRS: 5.755%. With CN(C)CCCn1ccnc1C1CCN(C(=O)Cc2cccnc2)CC1 the screen gave ClpP1P2: -8.224%; LiHisRS: 8.264%. COc1ccc2c(c1)CN(Cc1ccco1)C(=O)CCN2CC(C)(C)O read ClpP1P2: 11.12%; LiHisRS: 6.186%.

For reference, 2 entries once more:

{"structure": "COc1ccc2c(c1)CN(Cc1ccco1)C(=O)CCN2CC(C)(C)O", "ClpP1P2": 11.12, "LiHisRS": 6.186}
{"structure": "CC(C(=O)NCCOc1ccccc1)n1cncn1", "stereo": "stereo not shown", "ClpP1P2": -4.218, "LiHisRS": 16.95}

Data taken from ChEMBL document CHEMBL3988442, “University of Dundee, Small-Polar-MMV Screening Library” (2021).